The results in this text go back to article PMC5862959.

Protein sequences, listed by entry. Tags and fused reporters are not part of them.
UniProt P15976: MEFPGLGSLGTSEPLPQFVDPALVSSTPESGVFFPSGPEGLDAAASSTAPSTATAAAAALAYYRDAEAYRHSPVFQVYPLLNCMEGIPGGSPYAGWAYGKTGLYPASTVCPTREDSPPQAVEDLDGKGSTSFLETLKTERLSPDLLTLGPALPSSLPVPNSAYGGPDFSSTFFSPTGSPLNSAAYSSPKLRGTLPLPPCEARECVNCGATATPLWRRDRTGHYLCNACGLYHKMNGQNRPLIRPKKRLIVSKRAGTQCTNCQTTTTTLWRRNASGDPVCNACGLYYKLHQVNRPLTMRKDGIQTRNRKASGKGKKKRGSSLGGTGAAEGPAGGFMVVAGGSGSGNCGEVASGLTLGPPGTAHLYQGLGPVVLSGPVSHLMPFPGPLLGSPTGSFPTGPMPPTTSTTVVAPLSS

Where two headings read alike, the source gives them in different places. These are yes or no findings as the source states them, for the method shown. In cells and extracts the contact can be indirect. Some binding calls cover weakened binding; strength is not graded here.

For assay [1], the target named is hnRNPK (human (endogenous in OCI-M2, SC, M2AR)) (UniProt P61978). Description: condition: only cells treated with 1 μM 5-AZA (10–20 min); co-IP; endogenous proteins of OCI-M2 cells treated with 1 μM 5-AZA at various time points.
Assay [2] has the same target. Description: condition: only cells treated with 5-AZA (within 10 min); co-IP; endogenous proteins of 5-AZA-resistant M2AR cells treated with 5-AZA.
Assay [3] shares this target. Description: co-IP; endogenous proteins of 5-AZA-resistant M2AR cells; IP with antibodies against hnRNPK, RNA-pol-II CTD-S2P or BRD4 and western blot; cells untreated or treated with 5-AZA or JQ1. For orientation: In western blotting, separated proteins are transferred to a membrane and probed.
The target in assay [4] is GATA1 (human (endogenous in OCI-M2, M2AR)) (UniProt P15976). The assay can be described thus: co-IP; endogenous proteins of OCI-M2 cells (5-AZA-sensitive); IP with antibodies (GATA1, SPI1/PU.1, hnRNPK, RNA-pol-II CTD-S2P) and western blot; cells untreated or treated with 1 μM 5-AZA for various times.
Assay [5] has as its target hnRNPK (human (endogenous in OCI-M2, SC, M2AR)) (UniProt P61978). Description: co-IP; RNase digestion-coupled IP and co-IP, endogenous proteins of OCI-M2 cells; increasing doses of RNase.
For assay [6] the target is unchanged. The assay can be described thus: co-IP; endogenous proteins of OCI-M2 cells (5-AZA-sensitive); IP with antibodies (GATA1, SPI1/PU.1, hnRNPK, RNA-pol-II CTD-S2P) and western blot; cells untreated or treated with 1 μM 5-AZA for various times.
The target in assay [7] is GATA1 (human (endogenous in OCI-M2, M2AR)) (UniProt P15976). Described as above. This is another data set of the same source.

Turning to “CDK9/P-TEFb (from UniProt P50750 1-372) (enzyme)”, in assay [1], the binding result is reported as “no binding”.
Take GATA1 (from UniProt P15976 1-413): the binding result in assay [2] was “no binding”; in assay [3] it was “binds”.
For the molecule hnRNPK (from UniProt P61978 1-463), the binding result in assay [4] is given as “binds”.

B1: NSUN3 (enzyme, UniProt Q9H649 1-340)
chain: MLTQLKAKSEGKLAKQICKVVLDHFEKQYSKELGDAWNTVREILTSPSCWQYAVLLNRFNYPFELEKDLHLKGYHTLSQGSLPNYPKSVKCYLSRTPGRIPSERHQIGNLKKYYLLNAASLLPVLALELRDGEKVLDLCAAPGGKSIALLQCACPGYLHCNEYDSLRLRWLRQTLESFIPQPLINVIKVSELDGRKMGDAQPEMFDKVLVDAPCSNDRSWLFSSDSQKASCRISQRRNLPLLQIELLRSAIKALRPGGILVYSTCTLSKAENQDVISEILNSHGNIMPMDIKGIARTCSHDFTFAPTGQECGLLVIPDKGKAWGPMYVAKLKKSWSTGKW
Consider B1, for which the binding result in assay [5] and in assay [6] was “binds” in each case.

B2: hnRNP A0 (protein, UniProt Q13151 1-305)
chain: MENSQLCKLFIGGLNVQTSESGLRGHFEAFGTLTDCVVVVNPQTKRSRCFGFVTYSNVEEADAAMAASPHAVDGNTVELKRAVSREDSARPGAHAKVKKLFVGGLKGDVAEGDLIEHFSQFGTVEKAEIIADKQSGKKRGFGFVYFQNHDAADKAAVVKFHPIQGHRVEVKKAVPKEDIYSGGGGGGSRSSRGGRGGRGRGGGRDQNGLSKGGGGGYNSYGGYGGGGGGGYNAYGGGGGGSSYGGSDYGNGFGGFGSYSQHQSSYGPMKSGGGGGGGGSSWGGRSNSGPYRGGYGGGGGYGGSSF
Take B2: the binding result in assay [7] was “no binding”.

B3: DNMT2 (enzyme, UniProt O14717 1-391)
chain: MEPLRVLELYSGVGGMHHALRESCIPAQVVAAIDVNTVANEVYKYNFPHTQLLAKTIEGITLEEFDRLSFDMILMSPPCQPFTRIGRQGDMTDSRTNSFLHILDILPRLQKLPKYILLENVKGFEVSSTRDLLIQTIENCGFQYQEFLLSPTSLGIPNSRLRYFLIAKLQSEPLPFQAPGQVLMEFPKIESVHPQKYAMDVENKIQEKNVEPNISFDGSIQCSGKDAILFKLETAEEIHRKNQQDSDLSVKMLKDFLEDDTDVNQYLLPPKSLLRYALLLDIVQPTCRRSVCFTKGYGSYIEGTGSVLQTAEDVQVENIYKSLTNLSQEEQITKLLILKLRYFTPKEIANLLGFPPEFGFPEKITVKQRYRLLGNSLNVHVVAKLIKILYE
In the case of B3, the binding entry in assay [5] and in assay [6] was “binds” in each case.

B4: NSUN1 (enzyme, UniProt P46087 1-812)
chain: MGRKLDPTKEKRGPGRKARKQKGAETELVRFLPAVSDENSKRLSSRARKRAAKRRLGSVEAPKTNKSPEAKPLPGKLPKGISAGAVQTAGKKGPQSLFNAPRGKKRPAPGSDEEEEEEDSEEDGMVNHGDLWGSEDDADTVDDYGADSNSEDEEEGEALLPIERAARKQKAREAAAGIQWSEEETEDEEEEKEVTPESGPPKVEEADGGLQINVDEEPFVLPPAGEMEQDAQAPDLQRVHKRIQDIVGILRDFGAQREEGRSRSEYLNRLKKDLAIYYSYGDFLLGKLMDLFPLSELVEFLEANEVPRPVTLRTNTLKTRRRDLAQALINRGVNLDPLGKWSKTGLVVYDSSVPIGATPEYLAGHYMLQGASSMLPVMALAPQEHERILDMCCAPGGKTSYMAQLMKNTGVILANDANAERLKSVVGNLHRLGVTNTIISHYDGRQFPKVVGGFDRVLLDAPCSGTGVISKDPAVKTNKDEKDILRCAHLQKELLLSAIDSVNATSKTGGYLVYCTCSITVEENEWVVDYALKKRNVRLVPTGLDFGQEGFTRFRERRFHPSLRSTRRFYPHTHNMDGFFIAKFKKFSNSIPQSQTGNSETATPTNVDLPQVIPKSENSSQPAKKAKGAAKTKQQLQKQQHPKKASFQKLNGISKGADSELSTVPSVTKTQASSSFQDSSQPAGKAEGIREPKVTGKLKQRSPKLQSSKKVAFLRQNAPPKGTDTQTPAVLSPSKTQATLKPKDHHQPLGRAKGVEKQQLPEQPFEKAAFQKQNDTPKGPQPPTVSPIRSSRPPPAKRKKSQSRGNSQLLLS
With B4, the binding result in assay [5] was “no binding”.
